Where two headings read alike, the source gives them in different places.
System: E. coli MG1655 reporter cells
Assay type: cell-based, Escherichia coli
Procedure: The classical luciferase was from Molecular Probes (ATP Determination Kit (A22066)). The thermostable luciferase was from “CheckLite AT100” (kikkoman). The Luciferin-luciferase reagents were prepared following manufacturer instructions. Bacteria from exponentially growing cultures (OD600=0.3) were added to each well (60 μl/well) of a black 96-microtiter plate (Greiner Bio-one, 655076) and 20 μl of the luciferin-luciferase reagent solution was added. The microtiter plate was incubated 5 min at 37° C. for reaction with the luciferase to eliminate traces of extracellular ATP. Then 40 μl of antibiotic solution (3 times concentrated) prepared in the culture medium were added. Bioluminescence of each well was monitored for 4 hours under shaking (218 rpm) and at 28 or 37° C., depending on the experiments (see legends of Figures). The reagent stability in presence or absence of antibiotics was checked in control experiments without bacteria but with 4 pmoles of ATP. Tests were also performed in 384-microtiter plates (Greiner Bio-one, 784076).
Aminoglycosides are bactericidal antibiotics causing translational miscoding with lethal consequences for the cell. Leakage of small molecules following an aminoglycoside shock was previously identified by different methods including radiolabelling. Therefore, the inventors investigated the response of live cells to aminoglycoside stress.

[1] = (lag at MIC minus plateau lag) relative to total lag amplitude, MG1655 E. coli, OD600 of 0.15, medium LB, 37° C.

Molecule	Value of parameter X (%) [1] [%]	other results
CO[C@@]1(NC(=O)Cc2cccs2)C(=O)N2C(C(=O)O)=C(COC(N)=O)CS[C@@H]21 [Cefoxitin]	0.1	–
Neomycin	2.3	Value of parameter X (%) (media MH, OD600 at 0.015): 12.8%; Value of parameter X (%) (media MH, OD600 at 0.15): 8.8%; Value of parameter X (%) (media MH, OD600 at 0.3): 21.8%
[H]/N=C(/N)N[C@H]1[C@H](O)[C@@H](O)[C@H](O[C@@H]2O[C@@H](C)[C@](O)(C=O)[C@H]2O[C@@H]2O[C@@H](CO)[C@H](O)[C@@H](O)[C@@H]2NC)[C@@H](N/C(N)=N\[H])[C@@H]1O [Streptomycin]	1.6	–
NCC[C@H](O)C(=O)N[C@@H]1C[C@H](N)[C@@H](O[C@H]2O[C@H](CN)[C@@H](O)[C@H](O)[C@H]2O)[C@H](O)[C@H]1O[C@H]1O[C@H](CO)[C@@H](O)[C@H](N)[C@H]1O [Amikacin]	23.4	–
Gentamicin	0	–
C[C@@H]1O[C@@H]1P(=O)(O)O [Fosfomycin]	21.6	–
CC1(C)S[C@@H]2[C@H](NC(=O)[C@H](N)c3ccccc3)C(=O)N2[C@H]1C(=O)O [Ampicillin]	3.5	–
CO/N=C(\C(=O)N[C@@H]1C(=O)N2C(C(=O)O)=C(CSc3nc(=O)c(=O)[nH]n3C)CS[C@H]12)c1csc(N)n1 [Ceftriaxone]	2.1	–
CC1(C)S[C@@H]2[C@H](NC(=O)[C@H](N)c3ccc(O)cc3)C(=O)N2[C@H]1C(=O)O [Amoxicillin]	8.5	–
CCn1cc(C(=O)O)c(=O)c2ccc(C)nc21 [Nalidixic acid]	5.6	–
Cc1c(N)nc([C@H](CC(N)=O)NC[C@H](N)C(N)=O)nc1C(=O)N[C@H](C(=O)N[C@H](C)[C@@H](O)[C@H](C)C(=O)N[C@H](C(=O)NCCC1=N[C@@H](c2nc(C(=O)NCCCCN=C(N)N)cs2)CS1)[C@@H](C)O)[C@@H](O[C@@H]1O[C@@H](CO)[C@@H](O)[C@H](O)[C@@H]1O[C@H]1O[C@H](CO)[C@@H](O)[C@H](OC(N)=O)[C@@H]1O)c1cnc[nH]1 [Zeocin]	23.7	–
CN[C@@H]1[C@@H](O[C@H]2O[C@H](CO)[C@@H](N)[C@H](O)[C@H]2O)OC2C[C@@H](N)[C@@H](O[C@H]3[C@H](O)[C@@H](O)[C@H](N)C[C@@H]3N)OC2[C@@H]1O (some centres unmarked) [Apramycin]	0	–
Bleomycin	19.8	–
CC1=C(C(=O)O)N2C(=O)[C@@H](NC(=O)[C@H](N)c3ccccc3)[C@H]2SC1 [Cephalexin]	0.6	–

Source: patent publication US12595504B2, “Methods for screening compounds for bactericidal activity and for determining the sensitivity of bacterial samples” (priority 2020, dated 2026)
